Test results from the supplement of paper PMC6411743.
± gives the standard deviation of the averaged measurements. The list shows a part of the results.

By UniProt entry, the sequences of proteins in these tests, tags left out. Where a name states a change or a piece, a line headed by the entry shows the natural chain unless it says otherwise.
UniProt Q96A26: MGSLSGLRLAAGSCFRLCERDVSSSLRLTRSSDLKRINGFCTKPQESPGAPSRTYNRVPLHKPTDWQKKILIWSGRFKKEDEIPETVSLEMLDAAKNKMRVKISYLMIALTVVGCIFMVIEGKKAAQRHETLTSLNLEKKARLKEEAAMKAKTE
UniProt P52566: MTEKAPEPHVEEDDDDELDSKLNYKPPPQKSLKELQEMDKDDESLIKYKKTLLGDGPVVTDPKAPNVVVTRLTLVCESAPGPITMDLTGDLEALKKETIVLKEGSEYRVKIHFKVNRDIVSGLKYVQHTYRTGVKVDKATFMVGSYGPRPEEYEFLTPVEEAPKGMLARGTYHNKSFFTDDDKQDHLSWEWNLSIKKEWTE
UniProt Q14493, whole entry, looked up: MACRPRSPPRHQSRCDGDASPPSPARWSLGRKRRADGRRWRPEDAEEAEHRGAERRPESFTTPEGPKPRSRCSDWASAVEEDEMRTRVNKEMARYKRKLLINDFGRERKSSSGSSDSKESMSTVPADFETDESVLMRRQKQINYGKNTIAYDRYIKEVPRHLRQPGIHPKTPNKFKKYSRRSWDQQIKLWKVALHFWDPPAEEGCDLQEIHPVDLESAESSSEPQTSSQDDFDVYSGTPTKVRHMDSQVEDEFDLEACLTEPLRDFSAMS
UniProt Q9Y4E5: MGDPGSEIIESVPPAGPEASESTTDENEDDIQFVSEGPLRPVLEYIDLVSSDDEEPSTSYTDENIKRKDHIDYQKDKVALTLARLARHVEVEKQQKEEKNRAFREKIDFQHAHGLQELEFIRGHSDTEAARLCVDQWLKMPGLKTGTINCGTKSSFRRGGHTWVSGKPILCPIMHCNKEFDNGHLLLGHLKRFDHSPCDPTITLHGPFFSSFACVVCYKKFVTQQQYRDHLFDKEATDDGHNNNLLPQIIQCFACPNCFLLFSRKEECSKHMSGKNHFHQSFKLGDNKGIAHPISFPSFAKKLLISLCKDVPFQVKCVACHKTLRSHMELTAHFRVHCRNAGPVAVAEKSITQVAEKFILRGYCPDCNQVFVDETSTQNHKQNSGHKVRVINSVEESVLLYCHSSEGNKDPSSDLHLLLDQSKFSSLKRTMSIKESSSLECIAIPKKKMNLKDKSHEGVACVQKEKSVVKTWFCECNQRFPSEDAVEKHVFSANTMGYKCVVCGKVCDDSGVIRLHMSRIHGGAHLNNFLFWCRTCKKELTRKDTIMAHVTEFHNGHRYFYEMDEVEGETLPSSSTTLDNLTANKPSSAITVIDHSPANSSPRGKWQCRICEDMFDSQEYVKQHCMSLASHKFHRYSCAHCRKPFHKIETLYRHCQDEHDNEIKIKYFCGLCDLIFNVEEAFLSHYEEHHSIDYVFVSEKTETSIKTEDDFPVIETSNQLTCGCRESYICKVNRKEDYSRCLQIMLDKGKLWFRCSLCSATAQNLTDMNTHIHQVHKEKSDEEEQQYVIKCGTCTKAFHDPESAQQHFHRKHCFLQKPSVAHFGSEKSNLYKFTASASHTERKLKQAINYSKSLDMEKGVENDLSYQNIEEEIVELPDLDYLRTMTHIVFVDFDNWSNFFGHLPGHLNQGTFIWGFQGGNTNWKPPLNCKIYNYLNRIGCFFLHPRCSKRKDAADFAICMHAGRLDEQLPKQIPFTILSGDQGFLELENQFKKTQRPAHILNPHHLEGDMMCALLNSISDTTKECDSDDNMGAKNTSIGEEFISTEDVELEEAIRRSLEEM
UniProt Q6XQN6: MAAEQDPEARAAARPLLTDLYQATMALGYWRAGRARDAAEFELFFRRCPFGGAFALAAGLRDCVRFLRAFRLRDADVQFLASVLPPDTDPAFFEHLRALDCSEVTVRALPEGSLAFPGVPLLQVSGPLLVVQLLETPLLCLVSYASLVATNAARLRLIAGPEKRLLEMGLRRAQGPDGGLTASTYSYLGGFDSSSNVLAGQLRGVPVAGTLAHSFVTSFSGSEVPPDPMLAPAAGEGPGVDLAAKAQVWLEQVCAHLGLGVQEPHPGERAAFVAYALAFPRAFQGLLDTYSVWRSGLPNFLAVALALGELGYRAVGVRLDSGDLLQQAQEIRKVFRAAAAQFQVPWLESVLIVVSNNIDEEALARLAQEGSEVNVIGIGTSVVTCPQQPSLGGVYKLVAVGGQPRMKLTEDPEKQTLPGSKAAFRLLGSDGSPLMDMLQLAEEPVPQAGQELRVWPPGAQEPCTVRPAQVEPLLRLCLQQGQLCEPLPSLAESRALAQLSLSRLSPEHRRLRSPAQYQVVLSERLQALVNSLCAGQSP
UniProt O95819: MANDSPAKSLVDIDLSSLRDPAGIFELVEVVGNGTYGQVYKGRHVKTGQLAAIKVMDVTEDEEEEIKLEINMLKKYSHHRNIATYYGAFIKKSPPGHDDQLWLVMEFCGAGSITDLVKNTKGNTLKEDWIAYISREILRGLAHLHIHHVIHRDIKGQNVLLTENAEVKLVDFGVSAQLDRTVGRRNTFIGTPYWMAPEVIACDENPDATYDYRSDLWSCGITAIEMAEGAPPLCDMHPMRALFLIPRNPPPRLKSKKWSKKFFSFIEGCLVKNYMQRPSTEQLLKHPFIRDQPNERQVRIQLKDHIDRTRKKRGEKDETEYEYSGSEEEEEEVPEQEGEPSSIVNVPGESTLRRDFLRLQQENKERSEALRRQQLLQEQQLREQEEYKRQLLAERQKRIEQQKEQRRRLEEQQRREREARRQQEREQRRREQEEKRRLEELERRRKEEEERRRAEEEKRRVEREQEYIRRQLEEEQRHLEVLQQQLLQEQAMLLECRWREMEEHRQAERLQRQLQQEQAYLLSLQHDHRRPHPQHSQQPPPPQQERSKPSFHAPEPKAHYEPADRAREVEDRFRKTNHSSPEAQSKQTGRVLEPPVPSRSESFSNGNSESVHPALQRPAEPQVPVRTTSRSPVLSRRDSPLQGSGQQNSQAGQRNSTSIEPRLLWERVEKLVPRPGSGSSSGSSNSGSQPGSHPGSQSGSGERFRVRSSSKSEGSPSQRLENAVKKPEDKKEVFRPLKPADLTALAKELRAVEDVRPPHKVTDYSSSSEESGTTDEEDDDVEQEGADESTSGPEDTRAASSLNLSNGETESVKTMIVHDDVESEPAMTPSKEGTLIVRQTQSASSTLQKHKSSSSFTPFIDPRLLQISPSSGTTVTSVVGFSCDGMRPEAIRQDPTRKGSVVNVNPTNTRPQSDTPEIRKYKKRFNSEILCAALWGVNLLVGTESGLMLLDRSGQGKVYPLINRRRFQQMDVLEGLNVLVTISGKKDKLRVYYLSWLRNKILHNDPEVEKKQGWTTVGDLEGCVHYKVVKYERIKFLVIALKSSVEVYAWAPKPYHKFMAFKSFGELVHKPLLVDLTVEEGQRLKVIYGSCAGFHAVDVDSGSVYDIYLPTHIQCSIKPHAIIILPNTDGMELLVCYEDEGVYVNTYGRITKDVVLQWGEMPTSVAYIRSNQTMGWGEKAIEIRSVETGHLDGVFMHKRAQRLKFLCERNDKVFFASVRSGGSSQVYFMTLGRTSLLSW
UniProt P17480: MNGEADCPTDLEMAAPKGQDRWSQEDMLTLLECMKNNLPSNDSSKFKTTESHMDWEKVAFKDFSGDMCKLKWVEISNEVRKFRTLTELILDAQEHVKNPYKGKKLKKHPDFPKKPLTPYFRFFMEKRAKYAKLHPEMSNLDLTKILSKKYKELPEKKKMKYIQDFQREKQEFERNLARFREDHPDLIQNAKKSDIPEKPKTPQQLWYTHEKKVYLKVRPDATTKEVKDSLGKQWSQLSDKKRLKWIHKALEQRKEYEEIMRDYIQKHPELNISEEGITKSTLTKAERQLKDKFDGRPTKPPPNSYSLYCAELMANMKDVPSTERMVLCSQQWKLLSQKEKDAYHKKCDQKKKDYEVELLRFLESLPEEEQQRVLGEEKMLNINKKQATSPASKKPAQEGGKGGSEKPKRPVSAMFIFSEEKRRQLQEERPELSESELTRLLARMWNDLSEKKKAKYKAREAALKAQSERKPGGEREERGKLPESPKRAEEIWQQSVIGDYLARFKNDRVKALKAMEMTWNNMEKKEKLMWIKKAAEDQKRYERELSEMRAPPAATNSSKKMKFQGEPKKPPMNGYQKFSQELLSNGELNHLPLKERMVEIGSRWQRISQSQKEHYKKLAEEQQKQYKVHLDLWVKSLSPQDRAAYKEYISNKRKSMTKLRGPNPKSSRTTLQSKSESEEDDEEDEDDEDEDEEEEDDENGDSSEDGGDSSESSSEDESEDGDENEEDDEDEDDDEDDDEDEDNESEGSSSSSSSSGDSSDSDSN
UniProt Q6IAA8, whole entry: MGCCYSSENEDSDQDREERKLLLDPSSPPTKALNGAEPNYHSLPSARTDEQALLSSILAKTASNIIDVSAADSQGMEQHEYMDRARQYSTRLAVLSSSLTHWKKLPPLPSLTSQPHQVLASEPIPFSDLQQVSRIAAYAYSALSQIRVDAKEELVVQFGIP
UniProt P05556, whole entry: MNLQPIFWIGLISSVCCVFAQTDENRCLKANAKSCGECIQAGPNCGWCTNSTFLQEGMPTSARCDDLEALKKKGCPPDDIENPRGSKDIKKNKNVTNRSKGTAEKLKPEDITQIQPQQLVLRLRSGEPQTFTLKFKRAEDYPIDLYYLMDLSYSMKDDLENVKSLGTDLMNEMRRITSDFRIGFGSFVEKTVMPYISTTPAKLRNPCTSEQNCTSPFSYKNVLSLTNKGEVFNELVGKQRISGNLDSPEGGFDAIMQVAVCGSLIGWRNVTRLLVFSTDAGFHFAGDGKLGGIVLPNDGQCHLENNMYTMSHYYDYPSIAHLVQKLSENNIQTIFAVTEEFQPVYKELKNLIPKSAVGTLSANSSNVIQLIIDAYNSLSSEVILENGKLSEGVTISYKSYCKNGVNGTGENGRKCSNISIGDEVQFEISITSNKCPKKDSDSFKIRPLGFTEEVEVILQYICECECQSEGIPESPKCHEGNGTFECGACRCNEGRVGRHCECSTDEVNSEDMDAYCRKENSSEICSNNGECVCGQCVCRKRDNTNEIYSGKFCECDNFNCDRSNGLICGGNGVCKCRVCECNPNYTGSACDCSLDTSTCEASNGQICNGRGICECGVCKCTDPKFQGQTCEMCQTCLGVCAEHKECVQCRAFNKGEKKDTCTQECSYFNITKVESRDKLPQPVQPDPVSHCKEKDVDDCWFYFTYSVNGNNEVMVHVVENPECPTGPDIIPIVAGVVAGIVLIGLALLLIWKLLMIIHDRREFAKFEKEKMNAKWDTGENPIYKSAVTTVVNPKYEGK
UniProt P11117: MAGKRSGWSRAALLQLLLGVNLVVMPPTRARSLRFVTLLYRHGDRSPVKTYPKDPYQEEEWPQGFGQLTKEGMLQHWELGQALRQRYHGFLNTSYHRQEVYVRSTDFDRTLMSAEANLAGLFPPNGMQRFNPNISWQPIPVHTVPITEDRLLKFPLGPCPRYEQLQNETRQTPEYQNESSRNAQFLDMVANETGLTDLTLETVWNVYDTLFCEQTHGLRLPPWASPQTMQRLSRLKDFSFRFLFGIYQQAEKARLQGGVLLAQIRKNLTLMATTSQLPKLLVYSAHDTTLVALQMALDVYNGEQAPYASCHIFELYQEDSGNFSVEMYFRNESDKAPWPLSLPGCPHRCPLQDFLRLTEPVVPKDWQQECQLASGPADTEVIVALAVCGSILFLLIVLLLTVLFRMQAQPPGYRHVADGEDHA
UniProt P98171: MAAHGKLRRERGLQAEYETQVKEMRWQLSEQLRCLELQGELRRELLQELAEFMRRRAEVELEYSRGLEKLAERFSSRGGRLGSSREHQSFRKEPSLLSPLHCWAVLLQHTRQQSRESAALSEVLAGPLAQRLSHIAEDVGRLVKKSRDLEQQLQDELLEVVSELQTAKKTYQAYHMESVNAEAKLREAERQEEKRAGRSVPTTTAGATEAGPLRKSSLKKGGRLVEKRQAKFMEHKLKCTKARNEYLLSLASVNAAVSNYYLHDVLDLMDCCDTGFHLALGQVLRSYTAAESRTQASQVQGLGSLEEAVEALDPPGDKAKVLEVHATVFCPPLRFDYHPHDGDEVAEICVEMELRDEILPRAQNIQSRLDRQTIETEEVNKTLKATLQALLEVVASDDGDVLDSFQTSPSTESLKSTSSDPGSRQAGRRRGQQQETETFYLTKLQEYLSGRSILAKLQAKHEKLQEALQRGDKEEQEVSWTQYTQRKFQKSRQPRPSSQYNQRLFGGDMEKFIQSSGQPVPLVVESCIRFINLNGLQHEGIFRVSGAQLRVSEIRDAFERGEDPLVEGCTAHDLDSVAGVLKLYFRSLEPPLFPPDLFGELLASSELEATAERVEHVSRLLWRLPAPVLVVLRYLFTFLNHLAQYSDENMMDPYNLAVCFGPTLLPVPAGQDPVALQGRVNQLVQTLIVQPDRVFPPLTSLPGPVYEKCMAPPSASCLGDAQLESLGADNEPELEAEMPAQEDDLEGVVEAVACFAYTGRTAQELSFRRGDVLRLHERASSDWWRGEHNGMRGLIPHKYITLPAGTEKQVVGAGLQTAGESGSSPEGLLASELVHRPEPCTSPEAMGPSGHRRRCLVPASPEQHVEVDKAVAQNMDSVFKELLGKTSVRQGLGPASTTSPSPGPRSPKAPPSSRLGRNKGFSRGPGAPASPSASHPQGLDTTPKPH

Compound: Nc1nc2c(ncn2[C@@H]2O[C@H](COP(=O)(O)OP(=O)(O)OP(=O)(O)O)[C@@H](O)[C@H]2O)c(=O)[nH]1 [guanosine triphosphate]
Test: NP40-soluble protein abundance relative to vehicle (solubility fold change) (ratio); higher = more soluble protein in presence of GTP
Method in brief: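 In three independent experiments, Jurkat crude lysate made by Dounce homogenisation was treated for 10 min at room temperature and then 3 min at 37 °C with eight concentrations ranging from 0.1 to 10 mM. It was then solubilised with 0.8% NP40 plus benzonase for 60 min at 4 °C and ultracentrifuged. The supernatant was TMT-labelled for LC-MS/MS, and each value is the fold change against the detergent-processed vehicle for the same replicate, using vsn-normalised intensities.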

Target | NP40-soluble protein abundance (concentration: 0.1mM) | NP40-soluble protein abundance (concentration: 0.5mM) | NP40-soluble protein abundance (concentration: 1mM) | NP40-soluble protein abundance (concentration: 2mM) | NP40-soluble protein abundance (concentration: 4mM) | NP40-soluble protein abundance (concentration: 6mM) | NP40-soluble protein abundance (concentration: 8mM) | NP40-soluble protein abundance (concentration: 10mM)
E7EW05 and related entries (UniProt Q9NVU7) | 1.07 ± 0.046 | 1.01 ± 0.055 | 1.04 ± 0.053 | 1.08 ± 0.023 | 1.12 ± 0.048 | 1.11 ± 0.03 | 1.23 ± 0.044 | 1.19 ± 0.066
F8W7Q4 and related entries (UniProt Q96A26) | 0.934 ± 0.1 | 0.968 ± 0.15 | 0.957 ± 0.085 | 0.893 ± 0.088 | 0.84 ± 0.1 | 0.886 ± 0.11 | 0.831 ± 0.11 | 0.941 ± 0.091
E9PKI8 and related entries (UniProt P37837) | 0.912 ± 0.05 | 0.904 ± 0.08 | 0.859 ± 0.15 | 0.846 ± 0.11 | 0.83 ± 0.12 | 0.815 ± 0.18 | 0.854 ± 0.08 | 0.843 ± 0.1
F5H2R5 and related entries (UniProt P52566) | 0.962 ± 0.025 | 0.979 ± 0.026 | 0.943 ± 0.06 | 0.886 ± 0.063 | 0.864 ± 0.088 | 0.884 ± 0.089 | 0.87 ± 0.067 | 0.839 ± 0.085
F8W8D3 and related entries (UniProt Q14493) | 0.949 ± 0.05 | 0.911 ± 0.012 | 1.01 ± 0.02 | 0.968 ± 0.051 | 0.935 ± 0.053 | 0.989 ± 0.08 | 0.982 ± 0.038 | 1.02 ± 0.054
G3V5P0 and related entries (UniProt Q86UP2) | 0.928 ± 0.055 | 0.922 ± 0.08 | 0.99 ± 0.048 | 0.956 ± 0.068 | 0.974 ± 0.054 | 0.98 ± 0.056 | 0.9931 ± 0.0024 | 1.02 ± 0.081
F8VUY8 and related entries (UniProt Q96QD8) | 0.912 ± 0.12 | 0.952 ± 0.16 | 0.895 ± 0.11 | 0.903 ± 0.23 | 0.886 ± 0.13 | 0.856 ± 0.1 | 0.915 ± 0.065 | 0.947 ± 0.059
E9PH99 and related entries (UniProt Q9Y4E5) | 0.997 ± 0.04 | 1 ± 0.12 | 0.922 ± 0.031 | 0.999 ± 0.021 | 1.02 ± 0.06 | 1.14 ± 0.049 | 1.26 ± 0.084 | 1.22 ± 0.12
G3V167 and related entries (UniProt Q9UGN5) | 0.968 ± 0.053 | 1.05 ± 0.13 | 1.05 ± 0.13 | 1.09 ± 0.11 | 1.1 ± 0.092 | 1.21 ± 0.076 | 1.28 ± 0.12 | 1.4 ± 0.1
F5H1D6 and related entries (UniProt Q07864) | 1.12 ± 0.086 | 1.11 ± 0.049 | 1.09 ± 0.071 | 1.14 ± 0.047 | 1.1 ± 0.067 | 1.11 ± 0.023 | 1.14 ± 0.06 | 0.994 ± 0.069
F6V2D4 and related entries (UniProt O00214) | 1.06 ± 0.11 | 1.05 ± 0.069 | 0.949 ± 0.086 | 0.972 ± 0.13 | 0.96 ± 0.03 | 0.905 ± 0.065 | 0.96 ± 0.05 | 0.923 ± 0.1
E7EX48 and related entries (UniProt P51957) | 1.01 ± 0.097 | 0.987 ± 0.21 | 0.961 ± 0.21 | 1.01 ± 0.2 | 0.986 ± 0.21 | 0.957 ± 0.23 | 0.985 ± 0.25 | 1.06 ± 0.25
G5E977 and related entries (UniProt Q6XQN6) | 0.955 ± 0.029 | 0.962 ± 0.15 | 0.944 ± 0.033 | 0.952 ± 0.067 | 0.944 ± 0.013 | 0.841 ± 0.12 | 0.839 ± 0.016 | 0.803 ± 0.088
F5H5U2 and related entries (UniProt Q8NHQ9) | 1.09 ± 0.053 | 1.08 ± 0.076 | 0.984 ± 0.043 | 1.08 ± 0.11 | 1.15 ± 0.098 | 1.17 ± 0.073 | 1.24 ± 0.053 | 1.33 ± 0.14
E7ESS2 and related entries (UniProt O95819) | 0.979 ± 0.061 | 1.01 ± 0.07 | 0.99 ± 0.067 | 0.97 ± 0.077 | 0.968 ± 0.064 | 0.976 ± 0.059 | 1.01 ± 0.054 | 0.996 ± 0.06
F8VXG7 and related entries (UniProt Q99590) | 1.02 ± 0.064 | 1.13 ± 0.03 | 1.22 ± 0.025 | 1.26 ± 0.058 | 1.3 ± 0.042 | 1.31 ± 0.031 | 1.4 ± 0.1 | 1.42 ± 0.12
F8VYE8 and related entries (UniProt P36873) | 1.07 ± 0.016 | 1.07 ± 0.044 | 0.962 ± 0.01 | 0.972 ± 0.06 | 0.959 ± 0.089 | 0.965 ± 0.067 | 0.955 ± 0.058 | 0.925 ± 0.096
F5H8D0 and related entries (UniProt Q96GC5) | 1.07 ± 0.094 | 1.31 ± 0.21 | 1.39 ± 0.35 | 1.56 ± 0.41 | 1.53 ± 0.4 | 1.61 ± 0.41 | 1.64 ± 0.53 | 1.61 ± 0.53
E7ET76 and related entries (UniProt P19440) | 0.882 ± 0.18 | 0.902 ± 0.2 | 0.902 ± 0.2 | 0.879 ± 0.17 | 0.923 ± 0.15 | 0.916 ± 0.095 | 0.92 ± 0.12 | 0.927 ± 0.15
E9PKP7 and related entries (UniProt P17480) | 1.02 ± 0.025 | 1 ± 0.036 | 1.08 ± 0.025 | 1.2 ± 0.079 | 1.31 ± 0.074 | 1.45 ± 0.066 | 1.5 ± 0.053 | 1.87 ± 0.13
F5GX19 and related entries (UniProt Q6IAA8) | 0.996 ± 0.061 | 0.938 ± 0.074 | 1.1 ± 0.085 | 1.1 ± 0.091 | 1.09 ± 0.043 | 1.07 ± 0.09 | 1.05 ± 0.054 | 1.12 ± 0.04
E9PFW2 and related entries (UniProt O00462) | 1.04 ± 0.034 | 1.03 ± 0.088 | 0.962 ± 0.088 | 0.926 ± 0.1 | 1.03 ± 0.031 | 0.891 ± 0.085 | 1.017 ± 0.009 | 0.984 ± 0.12
E7EUI6 and related entries (UniProt P05556) | 0.897 ± 0.072 | 0.907 ± 0.079 | 0.942 ± 0.063 | 0.916 ± 0.096 | 0.895 ± 0.087 | 0.921 ± 0.071 | 0.924 ± 0.043 | 0.953 ± 0.1
E9PQY3 and related entries (UniProt P11117) | 0.97 ± 0.12 | 0.861 ± 0.028 | 0.996 ± 0.052 | 1 ± 0.11 | 0.983 ± 0.073 | 0.968 ± 0.054 | 0.961 ± 0.026 | 0.977 ± 0.015
E7EQN5 and related entries (UniProt P98171) | 1.03 ± 0.016 | 1.05 ± 0.025 | 0.9909 ± 0.0031 | 1.02 ± 0.033 | 0.985 ± 0.018 | 0.9975 ± 0.0053 | 0.9806 ± 0.0087 | 0.968 ± 0.033
E7EX90 and related entries (UniProt Q14203) | 0.997 ± 0.02 | 1.06 ± 0.033 | 1.09 ± 0.07 | 1.11 ± 0.1 | 1.13 ± 0.12 | 1.14 ± 0.16 | 1.15 ± 0.17 | 1.14 ± 0.19

Fetched one by one from the entries so far:
Target | NP40-soluble protein abundance (concentration: 0.1mM) | NP40-soluble protein abundance (concentration: 0.5mM) | NP40-soluble protein abundance (concentration: 1mM) | NP40-soluble protein abundance (concentration: 2mM) | NP40-soluble protein abundance (concentration: 4mM) | NP40-soluble protein abundance (concentration: 6mM) | NP40-soluble protein abundance (concentration: 8mM) | NP40-soluble protein abundance (concentration: 10mM)
G3V5P0 and related entries (UniProt Q86UP2) | 0.928 ± 0.055 | 0.922 ± 0.08 | 0.99 ± 0.048 | 0.956 ± 0.068 | 0.974 ± 0.054 | 0.98 ± 0.056 | 0.9931 ± 0.0024 | 1.02 ± 0.081
E7EW05 and related entries (UniProt Q9NVU7) | 1.07 ± 0.046 | 1.01 ± 0.055 | 1.04 ± 0.053 | 1.08 ± 0.023 | 1.12 ± 0.048 | 1.11 ± 0.03 | 1.23 ± 0.044 | 1.19 ± 0.066
